In assay [1] the target is His6-tagged ADF-4 (Araneus diadematus fibroin-4, partial cDNA product from pFastBacHTa, expressed in the cytoplasm of Sf9 cells) (Araneus diadematus). Nature of the assay: self-assembly into filaments in the cytoplasm of Sf9 cells; light microscopy and anti-His6 immunofluorescence.
The target of assay [2] is T7-tagged ADF-4 (Araneus diadematus fibroin-4, partial cDNA product, expressed in the cytoplasm of Sf9 cells) (Araneus diadematus). Nature of the assay: self-assembly into filaments in Sf9 cells; light microscopy.
The target is the same in assay [3]. The assay can be described thus: self-assembly into filaments in Sf9 cells co-expressing adf-3 and adf-4; sedimentation and western blot. (In general: In western blotting, separated proteins are transferred to a membrane and probed.)

These are yes or no findings as the source states them, for the method shown. Some entries that bind do so weakly or less than the wild type. Sequences can lack the tags named with a protein.

B1: His6-tagged ADF-4 (Araneus diadematus fibroin-4, partial cDNA product from pFastBacHTa, expressed in the cytoplasm of Sf9 cells) (protein, not shown: small tags and cut ends)
chain: AGSSAAAAAAASGSGGYGPENQGPSGPVAYGPGGPVSSAAAAAAAGSGPGGYGPENQGPSGPGGYGPGGSGSSAAAAAAAASGPGGYGPGSQGPSGPGGSGGYGPGSQGASGPGGPGASAAAAAAAAAASGPGGYGPGSQGPSGPGAYGPGGPGSSAAAAAAAASGPGGYGPGSQGPSGPGVYGPGGPGSSAAAAAAAGSGPGGYGPENQGPSGPGGYGPGGSGSSAAAAAAAASGPGGYGPGSQGPSGPGGSGGYGPGSQGGSGPGASAAAAAAAASGPGGYGPGSQGPSGPGYQGPSGPGAYGPSPSASASVAASVYLRLQPRLEVSSAVSSLVSSGPTNGAAVSGALNSLVSQISASNPGLSGCDALVQALLELVSALVAILSSASIGQVNVSSVSQSTQMISQALS
For the molecule B1, the binding result in assay [1] is “binds”.

B2: T7-tagged ADF-4 (Araneus diadematus fibroin-4, partial cDNA product, expressed in the cytoplasm of Sf9 cells) (protein, not shown: small tags and cut ends)
chain: AGSSAAAAAAASGSGGYGPENQGPSGPVAYGPGGPVSSAAAAAAAGSGPGGYGPENQGPSGPGGYGPGGSGSSAAAAAAAASGPGGYGPGSQGPSGPGGSGGYGPGSQGASGPGGPGASAAAAAAAAAASGPGGYGPGSQGPSGPGAYGPGGPGSSAAAAAAAASGPGGYGPGSQGPSGPGVYGPGGPGSSAAAAAAAGSGPGGYGPENQGPSGPGGYGPGGSGSSAAAAAAAASGPGGYGPGSQGPSGPGGSGGYGPGSQGGSGPGASAAAAAAAASGPGGYGPGSQGPSGPGYQGPSGPGAYGPSPSASASVAASVYLRLQPRLEVSSAVSSLVSSGPTNGAAVSGALNSLVSQISASNPGLSGCDALVQALLELVSALVAILSSASIGQVNVSSVSQSTQMISQALS
In the case of B2, the binding result in assay [2] and in assay [3] was “binds” throughout.

The values above are taken from US20080021553A1.
